# Results are given in words; binding and its absence hold for the method and conditions named. Binding seen in cells or lysates may run through a third protein. Some binding calls cover weakened binding; strength is not graded here. For some assays here: Tags and fused reporters may be left off the sequences shown.
# Amino acid sequences for entries named in this document (tags omitted).
# UniProt O00148: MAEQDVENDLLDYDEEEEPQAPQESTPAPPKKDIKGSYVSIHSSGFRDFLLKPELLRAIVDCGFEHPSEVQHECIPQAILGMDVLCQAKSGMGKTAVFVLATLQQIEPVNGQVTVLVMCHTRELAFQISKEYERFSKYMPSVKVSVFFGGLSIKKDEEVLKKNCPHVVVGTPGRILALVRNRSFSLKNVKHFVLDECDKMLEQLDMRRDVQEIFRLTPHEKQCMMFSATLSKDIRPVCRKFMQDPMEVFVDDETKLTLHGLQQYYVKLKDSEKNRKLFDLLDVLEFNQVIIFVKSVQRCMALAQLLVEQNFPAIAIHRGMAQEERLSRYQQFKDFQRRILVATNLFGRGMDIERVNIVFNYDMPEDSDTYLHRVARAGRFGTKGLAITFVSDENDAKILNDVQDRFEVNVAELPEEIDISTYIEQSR
# UniProt Q9UHI6: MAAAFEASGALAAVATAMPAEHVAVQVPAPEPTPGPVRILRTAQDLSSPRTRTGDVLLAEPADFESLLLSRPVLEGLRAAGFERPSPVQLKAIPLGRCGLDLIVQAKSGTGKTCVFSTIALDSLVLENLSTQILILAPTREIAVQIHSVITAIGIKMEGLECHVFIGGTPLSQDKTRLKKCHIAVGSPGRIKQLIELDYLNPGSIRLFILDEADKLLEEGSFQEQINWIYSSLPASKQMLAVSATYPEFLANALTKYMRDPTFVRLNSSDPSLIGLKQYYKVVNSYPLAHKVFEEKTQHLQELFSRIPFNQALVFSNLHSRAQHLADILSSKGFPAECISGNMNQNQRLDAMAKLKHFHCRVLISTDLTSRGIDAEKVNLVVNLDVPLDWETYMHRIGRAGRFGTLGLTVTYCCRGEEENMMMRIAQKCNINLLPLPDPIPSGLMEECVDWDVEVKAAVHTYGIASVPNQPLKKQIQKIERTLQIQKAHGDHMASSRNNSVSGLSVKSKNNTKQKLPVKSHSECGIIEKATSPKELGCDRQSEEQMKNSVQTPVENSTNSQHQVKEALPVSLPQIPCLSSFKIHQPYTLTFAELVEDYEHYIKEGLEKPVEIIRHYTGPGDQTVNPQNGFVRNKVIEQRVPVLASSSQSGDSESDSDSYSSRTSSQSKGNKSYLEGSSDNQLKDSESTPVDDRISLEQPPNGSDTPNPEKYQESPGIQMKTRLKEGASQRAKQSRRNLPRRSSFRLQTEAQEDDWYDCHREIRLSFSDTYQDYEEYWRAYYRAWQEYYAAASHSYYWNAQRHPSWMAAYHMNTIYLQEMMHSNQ
# UniProt Q9UJV9: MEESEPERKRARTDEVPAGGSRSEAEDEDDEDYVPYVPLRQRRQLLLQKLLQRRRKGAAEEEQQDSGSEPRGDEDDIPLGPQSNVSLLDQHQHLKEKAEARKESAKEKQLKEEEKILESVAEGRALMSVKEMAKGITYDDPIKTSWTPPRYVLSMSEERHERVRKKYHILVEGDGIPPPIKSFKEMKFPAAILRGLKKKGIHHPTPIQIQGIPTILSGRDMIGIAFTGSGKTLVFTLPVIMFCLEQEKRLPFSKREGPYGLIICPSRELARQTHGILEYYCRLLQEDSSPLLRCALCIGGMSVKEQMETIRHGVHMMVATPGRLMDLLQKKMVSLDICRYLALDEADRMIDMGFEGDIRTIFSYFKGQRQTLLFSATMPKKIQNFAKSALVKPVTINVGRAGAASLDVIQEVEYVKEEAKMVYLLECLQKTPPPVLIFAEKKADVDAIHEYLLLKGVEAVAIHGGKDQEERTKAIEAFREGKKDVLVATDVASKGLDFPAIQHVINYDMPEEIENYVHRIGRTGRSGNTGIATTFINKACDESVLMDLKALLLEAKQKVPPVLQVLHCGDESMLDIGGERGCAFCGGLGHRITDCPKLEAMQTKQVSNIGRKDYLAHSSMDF
# UniProt O00571: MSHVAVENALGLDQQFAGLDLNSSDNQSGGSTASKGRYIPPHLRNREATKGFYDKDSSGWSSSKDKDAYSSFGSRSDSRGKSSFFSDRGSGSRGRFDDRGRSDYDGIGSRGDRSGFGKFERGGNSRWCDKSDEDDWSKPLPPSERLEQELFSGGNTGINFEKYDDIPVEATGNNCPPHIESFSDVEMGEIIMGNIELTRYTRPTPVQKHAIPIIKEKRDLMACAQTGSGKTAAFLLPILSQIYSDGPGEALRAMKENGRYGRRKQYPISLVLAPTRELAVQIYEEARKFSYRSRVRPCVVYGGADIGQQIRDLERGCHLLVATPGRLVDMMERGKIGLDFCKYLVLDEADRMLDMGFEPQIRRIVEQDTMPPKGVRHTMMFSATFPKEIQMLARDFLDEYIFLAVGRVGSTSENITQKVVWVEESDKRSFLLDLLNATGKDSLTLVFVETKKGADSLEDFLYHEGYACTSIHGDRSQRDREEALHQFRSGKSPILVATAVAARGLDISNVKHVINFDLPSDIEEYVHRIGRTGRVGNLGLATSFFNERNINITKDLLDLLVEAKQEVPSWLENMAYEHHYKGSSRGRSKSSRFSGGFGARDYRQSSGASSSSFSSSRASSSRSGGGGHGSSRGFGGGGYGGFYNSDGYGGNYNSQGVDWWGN
# UniProt P26196: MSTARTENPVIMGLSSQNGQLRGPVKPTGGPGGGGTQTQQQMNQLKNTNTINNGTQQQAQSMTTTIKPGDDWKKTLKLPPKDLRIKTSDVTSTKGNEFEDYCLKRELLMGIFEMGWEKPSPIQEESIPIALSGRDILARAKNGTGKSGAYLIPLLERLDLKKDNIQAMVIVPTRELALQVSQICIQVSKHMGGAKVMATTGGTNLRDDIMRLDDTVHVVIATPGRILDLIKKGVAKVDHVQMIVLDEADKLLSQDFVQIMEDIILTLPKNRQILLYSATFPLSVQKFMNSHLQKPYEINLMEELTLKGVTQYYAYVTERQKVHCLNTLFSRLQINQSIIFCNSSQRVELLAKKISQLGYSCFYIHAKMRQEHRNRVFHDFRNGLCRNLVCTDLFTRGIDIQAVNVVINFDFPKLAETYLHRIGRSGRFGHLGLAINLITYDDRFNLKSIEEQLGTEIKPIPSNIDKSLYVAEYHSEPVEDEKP
# UniProt P68400: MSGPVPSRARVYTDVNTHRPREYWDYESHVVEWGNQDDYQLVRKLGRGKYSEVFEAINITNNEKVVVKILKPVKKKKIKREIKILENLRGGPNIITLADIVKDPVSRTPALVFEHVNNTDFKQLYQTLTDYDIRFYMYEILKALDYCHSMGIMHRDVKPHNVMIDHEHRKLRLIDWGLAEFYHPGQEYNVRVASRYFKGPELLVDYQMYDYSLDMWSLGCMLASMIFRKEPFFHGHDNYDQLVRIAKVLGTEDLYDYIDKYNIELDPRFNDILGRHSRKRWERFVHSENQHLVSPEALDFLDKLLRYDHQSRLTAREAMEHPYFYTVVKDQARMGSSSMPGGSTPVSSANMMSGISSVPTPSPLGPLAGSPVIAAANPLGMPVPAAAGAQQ
# UniProt P22392: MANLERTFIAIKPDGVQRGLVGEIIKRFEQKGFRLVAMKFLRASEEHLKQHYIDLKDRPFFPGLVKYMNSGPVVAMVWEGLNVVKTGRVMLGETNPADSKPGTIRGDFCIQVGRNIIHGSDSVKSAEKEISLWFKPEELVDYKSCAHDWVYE
# UniProt Q8TDD1: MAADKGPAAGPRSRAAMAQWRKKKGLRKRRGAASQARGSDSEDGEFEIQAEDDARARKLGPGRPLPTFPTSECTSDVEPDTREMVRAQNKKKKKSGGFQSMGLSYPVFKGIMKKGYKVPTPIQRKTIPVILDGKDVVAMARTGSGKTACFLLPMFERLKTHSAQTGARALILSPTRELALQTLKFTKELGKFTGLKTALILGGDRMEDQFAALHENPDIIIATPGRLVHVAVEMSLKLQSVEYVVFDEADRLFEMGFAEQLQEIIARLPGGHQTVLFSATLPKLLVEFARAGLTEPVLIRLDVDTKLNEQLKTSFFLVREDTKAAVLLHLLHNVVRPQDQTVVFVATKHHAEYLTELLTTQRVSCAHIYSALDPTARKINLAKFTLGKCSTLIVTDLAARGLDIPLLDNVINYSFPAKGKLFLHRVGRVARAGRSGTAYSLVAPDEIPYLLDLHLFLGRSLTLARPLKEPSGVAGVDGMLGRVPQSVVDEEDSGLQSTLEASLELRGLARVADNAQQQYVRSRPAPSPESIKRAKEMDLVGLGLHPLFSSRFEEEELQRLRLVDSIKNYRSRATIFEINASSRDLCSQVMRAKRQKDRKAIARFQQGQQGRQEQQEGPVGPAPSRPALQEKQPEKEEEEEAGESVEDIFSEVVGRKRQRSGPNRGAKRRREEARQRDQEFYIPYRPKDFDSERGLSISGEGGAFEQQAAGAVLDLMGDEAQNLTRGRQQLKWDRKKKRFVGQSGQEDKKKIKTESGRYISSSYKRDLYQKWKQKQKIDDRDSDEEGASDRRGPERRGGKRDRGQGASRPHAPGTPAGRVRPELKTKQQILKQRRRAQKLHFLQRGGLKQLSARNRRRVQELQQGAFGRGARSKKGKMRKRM
# UniProt P49674: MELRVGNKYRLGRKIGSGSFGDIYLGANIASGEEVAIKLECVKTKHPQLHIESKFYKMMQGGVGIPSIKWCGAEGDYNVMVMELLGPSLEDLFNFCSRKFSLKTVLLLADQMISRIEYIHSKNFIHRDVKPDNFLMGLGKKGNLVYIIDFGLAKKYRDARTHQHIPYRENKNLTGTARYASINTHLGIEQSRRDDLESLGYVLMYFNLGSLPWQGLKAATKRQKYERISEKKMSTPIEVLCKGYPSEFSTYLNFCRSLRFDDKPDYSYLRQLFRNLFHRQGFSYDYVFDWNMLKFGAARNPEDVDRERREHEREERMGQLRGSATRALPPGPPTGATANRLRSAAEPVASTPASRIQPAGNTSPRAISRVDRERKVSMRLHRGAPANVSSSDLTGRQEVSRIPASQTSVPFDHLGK
# T1: Myc-tagged DDX56 (UniProt Q9NY93)
# T1 sequence: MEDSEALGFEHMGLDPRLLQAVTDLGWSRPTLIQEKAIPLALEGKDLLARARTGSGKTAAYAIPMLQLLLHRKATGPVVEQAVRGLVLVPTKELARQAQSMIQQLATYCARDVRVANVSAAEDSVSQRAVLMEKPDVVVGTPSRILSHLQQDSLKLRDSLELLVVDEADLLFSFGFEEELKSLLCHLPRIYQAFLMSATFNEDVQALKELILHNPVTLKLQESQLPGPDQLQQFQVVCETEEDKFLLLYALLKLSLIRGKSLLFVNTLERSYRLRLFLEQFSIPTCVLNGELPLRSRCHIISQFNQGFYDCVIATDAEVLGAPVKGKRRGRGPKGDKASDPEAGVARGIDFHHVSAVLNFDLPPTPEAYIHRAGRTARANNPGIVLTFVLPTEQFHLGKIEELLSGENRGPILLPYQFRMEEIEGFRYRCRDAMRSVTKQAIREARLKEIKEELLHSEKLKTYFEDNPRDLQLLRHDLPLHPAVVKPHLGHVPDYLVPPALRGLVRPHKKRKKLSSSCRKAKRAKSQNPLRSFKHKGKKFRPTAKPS
# T2: Myc-tagged DDX50 (UniProt Q9BQ39)
# T2 sequence: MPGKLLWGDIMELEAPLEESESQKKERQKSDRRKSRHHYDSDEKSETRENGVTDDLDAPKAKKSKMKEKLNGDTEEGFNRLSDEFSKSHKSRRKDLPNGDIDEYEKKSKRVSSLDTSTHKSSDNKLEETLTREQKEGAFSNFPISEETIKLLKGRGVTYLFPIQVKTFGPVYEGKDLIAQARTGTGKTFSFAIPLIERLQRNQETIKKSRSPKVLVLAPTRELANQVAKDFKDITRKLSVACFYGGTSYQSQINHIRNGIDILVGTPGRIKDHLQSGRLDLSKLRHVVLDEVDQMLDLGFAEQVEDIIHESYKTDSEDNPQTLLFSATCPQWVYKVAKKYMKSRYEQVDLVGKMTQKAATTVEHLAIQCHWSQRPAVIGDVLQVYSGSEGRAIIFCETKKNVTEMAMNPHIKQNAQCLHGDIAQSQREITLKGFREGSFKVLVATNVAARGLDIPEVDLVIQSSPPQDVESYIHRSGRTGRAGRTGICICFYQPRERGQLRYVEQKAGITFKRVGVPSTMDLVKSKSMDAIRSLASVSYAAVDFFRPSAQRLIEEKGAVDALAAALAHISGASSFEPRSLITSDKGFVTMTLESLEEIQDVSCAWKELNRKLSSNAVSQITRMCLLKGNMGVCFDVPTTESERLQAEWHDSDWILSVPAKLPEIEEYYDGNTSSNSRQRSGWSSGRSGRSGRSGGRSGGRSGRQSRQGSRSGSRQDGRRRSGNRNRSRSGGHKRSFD
# Key:
# Myc-tagged DDX39A = Myc-tagged DDX39A (UniProt O00148); test: pull-down
# Myc-tagged DDX20 = Myc-tagged DDX20 (UniProt Q9UHI6); test: pull-down
# Myc-tagged DDX56 = target: T1, Myc-tagged DDX56; test: pull-down
# Myc-tagged DDX41 = Myc-tagged DDX41 (UniProt Q9UJV9); test: pull-down
# Myc-tagged DDX50 = target: T2, Myc-tagged DDX50; test: pull-down
# Myc-tagged DDX3X = Myc-tagged DDX3X (UniProt O00571); test: pull-down
# Myc-tagged DDX6 = Myc-tagged DDX6 (UniProt P26196); test: pull-down
# [1] = target: endogenous CK2α1 (human (endogenous in HeLa)) (UniProt P68400); test: co-IP
binding (Myc-tagged DDX39A),binding (Myc-tagged DDX20),binding (Myc-tagged DDX56),binding (Myc-tagged DDX41),binding (Myc-tagged DDX50),binding (Myc-tagged DDX3X),binding (Myc-tagged DDX6),binding [1],Molecule
no binding,no binding,no binding,no binding,no binding,no binding,no binding,,FLAG-NME2 (from UniProt P22392 1-152) (enzyme)
,,,,,,,binds,endogenous DDX41 (from UniProt Q9UJV9 1-622)
,,,,,,,binds,endogenous DDX54 (from UniProt Q8TDD1 1-881)
binds,binds,binds,binds,binds,,binds,,recombinant FLAG-tagged CK1ε (from UniProt P49674 1-416) (enzyme)
,,,,,,,no binding,"endogenous DDX56 (protein, UniProt Q9NY93 1-547) MEDSEALGFEHMGLDPRLLQAVTDLGWSRPTLIQEKAIPLALEGKDLLARARTGSGKTAAYAIPMLQLLLHRKATGPVVEQAVRGLVLVPTKELARQAQSMIQQLATYCARDVRVANVSAAEDSVSQRAVLMEKPDVVVGTPSRILSHLQQDSLKLRDSLELLVVDEADLLFSFGFEEELKSLLCHLPRIYQAFLMSATFNEDVQALKELILHNPVTLKLQESQLPGPDQLQQFQVVCETEEDKFLLLYALLKLSLIRGKSLLFVNTLERSYRLRLFLEQFSIPTCVLNGELPLRSRCHIISQFNQGFYDCVIATDAEVLGAPVKGKRRGRGPKGDKASDPEAGVARGIDFHHVSAVLNFDLPPTPEAYIHRAGRTARANNPGIVLTFVLPTEQFHLGKIEELLSGENRGPILLPYQFRMEEIEGFRYRCRDAMRSVTKQAIREARLKEIKEELLHSEKLKTYFEDNPRDLQLLRHDLPLHPAVVKPHLGHVPDYLVPPALRGLVRPHKKRKKLSSSCRKAKRAKSQNPLRSFKHKGKKFRPTAKPS"
,,,,,,,binds,"endogenous DDX24 (protein, UniProt Q9GZR7 1-859) MKLKDTKSRPKQSSCGKFQTKGIKVVGKWKEVKIDPNMFADGQMDDLVCFEELTDYQLVSPAKNPSSLFSKEAPKRKAQAVSEEEEEEEGKSSSPKKKIKLKKSKNVATEGTSTQKEFEVKDPELEAQGDDMVCDDPEAGEMTSENLVQTAPKKKKNKGKKGLEPSQSTAAKVPKKAKTWIPEVHDQKADVSAWKDLFVPRPVLRALSFLGFSAPTPIQALTLAPAIRDKLDILGAAETGSGKTLAFAIPMIHAVLQWQKRNAAPPPSNTEAPPGETRTEAGAETRSPGKAEAESDALPDDTVIESEALPSDIAAEARAKTGGTVSDQALLFGDDDAGEGPSSLIREKPVPKQNENEEENLDKEQTGNLKQELDDKSATCKAYPKRPLLGLVLTPTRELAVQVKQHIDAVARFTGIKTAILVGGMSTQKQQRMLNRRPEIVVATPGRLWELIKEKHYHLRNLRQLRCLVVDEADRMVEKGHFAELSQLLEMLNDSQYNPKRQTLVFSATLTLVHQAPARILHKKHTKKMDKTAKLDLLMQKIGMRGKPKVIDLTRNEATVETLTETKIHCETDEKDFYLYYFLMQYPGRSLVFANSISCIKRLSGLLKVLDIMPLTLHACMHQKQRLRNLEQFARLEDCVLLATDVAARGLDIPKVQHVIHYQVPRTSEIYVHRSGRTARATNEGLSLMLIGPEDVINFKKIYKTLKKDEDIPLFPVQTKYMDVVKERIRLARQIEKSEYRNFQACLHNSWIEQAAAALEIELEEDMYKGGKADQQEERRRQKQMKVLKKELRHLLSQPLFTESQKTKYPTQSGKPPLLVSAPSKSESALSCLSKQKKKKTKKPKEPQPEQPQPSTSAN"

# — paper doi:10.1101/2021.12.20.473452
